Reference: patent publication US11655492B2, “Activated formylglycine-generating enzymes and methods of producing and using the same” (R.P. Scherer Technologies, LLC, priority 2015, dated 2023)

B1: Hs-FGE + Cu: human FGE preparation after activation with copper (probably Hs-cFGE) (protein, UniProt Q8NBK3 34-374, looked up)
Formylglycine-generating …: SQEAGTGAGAGSLAGSCGCGTPQRPGAHGSSAAAHRYSREANAPGPVPGERQLAHSKMVPIPAGVFTMGTDDPQIKQDGEAPARRVTIDAFYMDAYEVSNTEFEKFVNSTGYLTEAEKFGDSFVFEGMLSEQVKTNIQQAVAAAPWWLPVKGANWRHPEGPDSTILHRPDHPVLHVSWNDAVAYCTWAGKRLPTEAEWEYSCRGGLHNRLFPWGNKLQPKGQHYANIWQGEFPVTNTGEDGFQGTAPVDAFPPNGYGLYNIVGNAWEWTSDWWTVHHSVEETLNPKGPPSGKDRVKKGGSYMCHRSYCYRYRCAARSQNTPDSSASNLGFRCAADRLPTMD
modifications: copper-activated
B2: Hs-FGE: full length wild-type human FGE containing the N-terminal extension and the core, UniProt Q8NBK3 (protein, UniProt Q8NBK3 1-374, looked up)
chain: MAAPALGLVCGRCPELGLVLLLLLLSLLCGAAGSQEAGTGAGAGSLAGSCGCGTPQRPGAHGSSAAAHRYSREANAPGPVPGERQLAHSKMVPIPAGVFTMGTDDPQIKQDGEAPARRVTIDAFYMDAYEVSNTEFEKFVNSTGYLTEAEKFGDSFVFEGMLSEQVKTNIQQAVAAAPWWLPVKGANWRHPEGPDSTILHRPDHPVLHVSWNDAVAYCTWAGKRLPTEAEWEYSCRGGLHNRLFPWGNKLQPKGQHYANIWQGEFPVTNTGEDGFQGTAPVDAFPPNGYGLYNIVGNAWEWTSDWWTVHHSVEETLNPKGPPSGKDRVKKGGSYMCHRSYCYRYRCAARSQNTPDSSASNLGFRCAADRLPTMD
modifications: full-length
notes: full length wild-type human FGE containing the N-terminal extension and the core, UniProt Q8NBK3
B3: Sc-FGE: Streptomyces coelicolor formylglycine-generating enzyme, UniProt Q9F3C7, N-terminal hexahistidine tag, expressed in E. coli (protein)
chain: MAVAAPSPAAAAEPGPAARPRSTRGQVRLPGGEFAMGDAFGEGYPADGETPVHTVRLRPFHIDETAVTNARFAAFVKATGHVTDAERFGSSAVFHLVVAAPDADVLGSAAGAPWWINVRGAHWRRPEGARSDITGRPNHPVVHVSWNDATAYARWAGKRLPTEAEWEYAARGGLAGRRYAWGDELTPGGRWRCNIWQGRFPHVNTAEDGHLSTAPVKSYRPNGHGLWNTAGNVWEWCSDWFSPTYYAESPTVDPHGPGTGAARVLRGGSYLCHDSYCNRYRVAARSSNTPDSSSGNLGFRCANDADLTSGSAAE
modifications: left off: small tags and cut ends
notes: Streptomyces coelicolor formylglycine-generating enzyme, UniProt Q9F3C7, N-terminal hexahistidine tag, expressed in E. coli
B4: Sc-FGE + Cu: Sc-FGE preparation after activation with copper (protein, UniProt Q9F3C7 1-314, looked up)
Formylglycine-generating …: MAVAAPSPAAAAEPGPAARPRSTRGQVRLPGGEFAMGDAFGEGYPADGETPVHTVRLRPFHIDETAVTNARFAAFVKATGHVTDAERFGSSAVFHLVVAAPDADVLGSAAGAPWWINVRGAHWRRPEGARSDITGRPNHPVVHVSWNDATAYARWAGKRLPTEAEWEYAARGGLAGRRYAWGDELTPGGRWRCNIWQGRFPHVNTAEDGHLSTAPVKSYRPNGHGLWNTAGNVWEWCSDWFSPTYYAESPTVDPHGPGTGAARVLRGGSYLCHDSYCNRYRVAARSSNTPDSSSGNLGFRCANDADLTSGSAAE
modifications: copper-activated
B5: Hs-cFGE: catalytic core of H. sapiens FGE with C-terminal His6 tag (SEQ ID NO. 11), expressed in Hi5 insect cells (protein)
chain: DRSLEANAPGPVPGERQLAHSKMVPIPAGVFTMGTDDPQIKQDGEAPARRVTIDAFYMDAYEVSNTEFEKFVNSTGYLTEVAAAPWWLPVKGANWRHPEGPDSTILHRPDHPVLHVSWNDAVAYCTWAGKRLPTEAEWEYSCRGGLHNRLFPWGNKLQPKGQHYANIWQGEFPVTNTGEDGFQGTAPVDAFPPNGYGLYNIVGNAWEWTSDWWTVHHSVEETLNPKGPPSGKDRVKKGGSYMCHRSYCYRYRCAARSQNTPDSSASNLGFRCAADRLPTMDKGENLYFQGHHHHHH

Assay: ICP-MS copper and calcium content of FGE preparations
Details: for Ca (ratio) / Cu (ratio): mol ratio to protein

Row | Molecule | Ca (ratio) | Cu (ratio) | copper content (after activation in vitro) | copper content (as purified) | copper content (unactivated, as isolated)
1 | B1 | 1.51 | 1.38 | – | – | –
2 | B2 | – | – | 1.4 Cu/FGE | – | –
3 | B3 | 2.84 | 0.01 | 1.1 Cu/FGE | ~0.01 Cu/FGE | almost no copper
4 | B4 | 0.85 | 1.16 | – | – | –
5 | B5 | 0.48 | 0.34 | – | 0.34 Cu/FGE | 0.35 mol Cu per mol FGE
